The list shows a part of the results.

By UniProt entry, the sequences of proteins in these tests, tags left out. Where a name states a change or a piece, a line headed by the entry shows the natural chain unless it says otherwise.
UniProt O43715: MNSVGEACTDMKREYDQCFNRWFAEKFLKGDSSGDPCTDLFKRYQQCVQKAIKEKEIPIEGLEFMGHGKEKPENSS
UniProt Q9P0I2: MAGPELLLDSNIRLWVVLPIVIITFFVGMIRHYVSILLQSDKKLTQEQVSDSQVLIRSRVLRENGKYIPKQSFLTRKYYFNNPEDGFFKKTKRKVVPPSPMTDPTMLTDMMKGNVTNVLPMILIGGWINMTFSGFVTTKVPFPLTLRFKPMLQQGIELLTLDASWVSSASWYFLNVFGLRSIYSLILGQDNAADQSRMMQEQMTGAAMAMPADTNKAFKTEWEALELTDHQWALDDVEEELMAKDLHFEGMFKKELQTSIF
UniProt Q86XT9, whole entry: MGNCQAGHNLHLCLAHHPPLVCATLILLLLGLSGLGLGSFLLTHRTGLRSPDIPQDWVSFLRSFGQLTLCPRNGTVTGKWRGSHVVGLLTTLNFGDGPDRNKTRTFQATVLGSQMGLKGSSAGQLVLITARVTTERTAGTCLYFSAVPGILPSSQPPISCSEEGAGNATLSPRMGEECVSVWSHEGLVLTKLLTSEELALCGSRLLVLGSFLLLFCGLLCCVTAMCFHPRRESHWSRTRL
UniProt P19438, whole entry: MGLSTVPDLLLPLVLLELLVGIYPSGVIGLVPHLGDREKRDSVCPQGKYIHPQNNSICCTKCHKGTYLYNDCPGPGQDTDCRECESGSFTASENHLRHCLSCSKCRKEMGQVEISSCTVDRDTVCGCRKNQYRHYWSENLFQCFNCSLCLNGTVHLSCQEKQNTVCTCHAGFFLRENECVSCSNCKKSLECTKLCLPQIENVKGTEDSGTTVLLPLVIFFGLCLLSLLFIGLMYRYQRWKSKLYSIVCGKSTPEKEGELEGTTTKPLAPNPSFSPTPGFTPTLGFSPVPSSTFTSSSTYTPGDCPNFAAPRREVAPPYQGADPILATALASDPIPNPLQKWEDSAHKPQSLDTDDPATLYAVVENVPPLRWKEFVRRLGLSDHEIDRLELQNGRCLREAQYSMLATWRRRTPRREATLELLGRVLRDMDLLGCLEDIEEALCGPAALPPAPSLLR
UniProt Q5BJD5: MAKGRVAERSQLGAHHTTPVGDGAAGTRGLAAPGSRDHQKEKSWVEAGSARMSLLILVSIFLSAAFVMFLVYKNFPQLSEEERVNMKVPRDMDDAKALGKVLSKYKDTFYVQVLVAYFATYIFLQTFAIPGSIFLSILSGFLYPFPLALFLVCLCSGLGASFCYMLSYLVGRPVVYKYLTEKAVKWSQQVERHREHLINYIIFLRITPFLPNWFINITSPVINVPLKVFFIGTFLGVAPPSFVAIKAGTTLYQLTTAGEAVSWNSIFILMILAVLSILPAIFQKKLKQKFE
UniProt Q92547, whole entry: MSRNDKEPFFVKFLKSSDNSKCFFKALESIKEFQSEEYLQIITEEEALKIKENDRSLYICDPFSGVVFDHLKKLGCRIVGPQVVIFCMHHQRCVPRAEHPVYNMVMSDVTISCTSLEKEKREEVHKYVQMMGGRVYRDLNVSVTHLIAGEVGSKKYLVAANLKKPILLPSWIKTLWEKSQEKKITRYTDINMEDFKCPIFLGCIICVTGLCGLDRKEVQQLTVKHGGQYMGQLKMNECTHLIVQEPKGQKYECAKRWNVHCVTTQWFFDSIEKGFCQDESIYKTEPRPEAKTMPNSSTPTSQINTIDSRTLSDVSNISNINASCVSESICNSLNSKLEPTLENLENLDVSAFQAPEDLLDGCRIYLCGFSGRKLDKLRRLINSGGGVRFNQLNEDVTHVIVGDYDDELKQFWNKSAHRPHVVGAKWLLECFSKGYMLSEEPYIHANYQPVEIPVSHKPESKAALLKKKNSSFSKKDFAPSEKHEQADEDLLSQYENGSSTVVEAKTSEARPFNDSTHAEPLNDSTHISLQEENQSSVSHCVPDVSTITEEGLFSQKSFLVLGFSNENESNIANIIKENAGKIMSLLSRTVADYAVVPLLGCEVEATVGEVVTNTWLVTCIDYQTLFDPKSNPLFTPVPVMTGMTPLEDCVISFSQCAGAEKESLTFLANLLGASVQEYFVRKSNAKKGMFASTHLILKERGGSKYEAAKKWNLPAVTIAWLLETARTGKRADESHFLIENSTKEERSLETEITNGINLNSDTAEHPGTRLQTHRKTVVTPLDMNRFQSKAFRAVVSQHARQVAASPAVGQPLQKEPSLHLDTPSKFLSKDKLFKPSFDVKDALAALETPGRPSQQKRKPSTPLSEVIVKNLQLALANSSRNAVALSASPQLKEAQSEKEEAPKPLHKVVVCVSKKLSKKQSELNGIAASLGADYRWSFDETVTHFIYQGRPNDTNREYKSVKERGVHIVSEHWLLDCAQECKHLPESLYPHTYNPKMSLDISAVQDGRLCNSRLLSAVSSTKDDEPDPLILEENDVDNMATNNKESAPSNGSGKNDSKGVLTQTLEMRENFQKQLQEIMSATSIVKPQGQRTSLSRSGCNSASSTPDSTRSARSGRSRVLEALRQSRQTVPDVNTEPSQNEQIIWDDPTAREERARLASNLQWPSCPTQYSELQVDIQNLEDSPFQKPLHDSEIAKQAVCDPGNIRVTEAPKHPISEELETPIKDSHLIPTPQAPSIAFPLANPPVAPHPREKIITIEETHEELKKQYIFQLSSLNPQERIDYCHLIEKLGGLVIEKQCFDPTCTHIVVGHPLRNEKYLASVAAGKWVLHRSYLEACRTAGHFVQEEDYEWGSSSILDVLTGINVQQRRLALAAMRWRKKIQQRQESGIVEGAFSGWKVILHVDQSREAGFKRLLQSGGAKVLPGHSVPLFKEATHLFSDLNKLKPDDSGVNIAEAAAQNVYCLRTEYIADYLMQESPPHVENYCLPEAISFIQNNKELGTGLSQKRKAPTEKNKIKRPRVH
UniProt Q15642: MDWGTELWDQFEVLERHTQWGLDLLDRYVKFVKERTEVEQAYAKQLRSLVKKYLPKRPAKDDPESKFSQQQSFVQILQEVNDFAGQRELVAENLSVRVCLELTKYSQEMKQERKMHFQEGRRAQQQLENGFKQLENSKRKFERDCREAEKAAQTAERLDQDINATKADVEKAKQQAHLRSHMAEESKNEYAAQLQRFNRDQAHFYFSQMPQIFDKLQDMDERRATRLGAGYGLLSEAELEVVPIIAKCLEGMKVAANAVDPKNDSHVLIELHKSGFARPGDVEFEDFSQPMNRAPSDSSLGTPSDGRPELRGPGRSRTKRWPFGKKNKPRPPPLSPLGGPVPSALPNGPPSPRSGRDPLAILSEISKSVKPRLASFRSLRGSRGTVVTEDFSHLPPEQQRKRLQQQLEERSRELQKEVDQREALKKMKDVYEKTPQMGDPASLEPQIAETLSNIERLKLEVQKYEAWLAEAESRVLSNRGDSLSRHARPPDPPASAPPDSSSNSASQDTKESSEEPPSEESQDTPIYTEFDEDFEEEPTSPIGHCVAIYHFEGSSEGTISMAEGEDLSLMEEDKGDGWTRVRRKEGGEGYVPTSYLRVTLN
UniProt P17152: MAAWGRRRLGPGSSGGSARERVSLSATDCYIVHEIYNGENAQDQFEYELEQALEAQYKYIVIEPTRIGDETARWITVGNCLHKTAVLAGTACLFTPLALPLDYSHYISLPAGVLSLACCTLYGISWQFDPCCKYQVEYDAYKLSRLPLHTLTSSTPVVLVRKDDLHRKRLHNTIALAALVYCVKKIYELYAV
UniProt Q9UPQ9, whole entry: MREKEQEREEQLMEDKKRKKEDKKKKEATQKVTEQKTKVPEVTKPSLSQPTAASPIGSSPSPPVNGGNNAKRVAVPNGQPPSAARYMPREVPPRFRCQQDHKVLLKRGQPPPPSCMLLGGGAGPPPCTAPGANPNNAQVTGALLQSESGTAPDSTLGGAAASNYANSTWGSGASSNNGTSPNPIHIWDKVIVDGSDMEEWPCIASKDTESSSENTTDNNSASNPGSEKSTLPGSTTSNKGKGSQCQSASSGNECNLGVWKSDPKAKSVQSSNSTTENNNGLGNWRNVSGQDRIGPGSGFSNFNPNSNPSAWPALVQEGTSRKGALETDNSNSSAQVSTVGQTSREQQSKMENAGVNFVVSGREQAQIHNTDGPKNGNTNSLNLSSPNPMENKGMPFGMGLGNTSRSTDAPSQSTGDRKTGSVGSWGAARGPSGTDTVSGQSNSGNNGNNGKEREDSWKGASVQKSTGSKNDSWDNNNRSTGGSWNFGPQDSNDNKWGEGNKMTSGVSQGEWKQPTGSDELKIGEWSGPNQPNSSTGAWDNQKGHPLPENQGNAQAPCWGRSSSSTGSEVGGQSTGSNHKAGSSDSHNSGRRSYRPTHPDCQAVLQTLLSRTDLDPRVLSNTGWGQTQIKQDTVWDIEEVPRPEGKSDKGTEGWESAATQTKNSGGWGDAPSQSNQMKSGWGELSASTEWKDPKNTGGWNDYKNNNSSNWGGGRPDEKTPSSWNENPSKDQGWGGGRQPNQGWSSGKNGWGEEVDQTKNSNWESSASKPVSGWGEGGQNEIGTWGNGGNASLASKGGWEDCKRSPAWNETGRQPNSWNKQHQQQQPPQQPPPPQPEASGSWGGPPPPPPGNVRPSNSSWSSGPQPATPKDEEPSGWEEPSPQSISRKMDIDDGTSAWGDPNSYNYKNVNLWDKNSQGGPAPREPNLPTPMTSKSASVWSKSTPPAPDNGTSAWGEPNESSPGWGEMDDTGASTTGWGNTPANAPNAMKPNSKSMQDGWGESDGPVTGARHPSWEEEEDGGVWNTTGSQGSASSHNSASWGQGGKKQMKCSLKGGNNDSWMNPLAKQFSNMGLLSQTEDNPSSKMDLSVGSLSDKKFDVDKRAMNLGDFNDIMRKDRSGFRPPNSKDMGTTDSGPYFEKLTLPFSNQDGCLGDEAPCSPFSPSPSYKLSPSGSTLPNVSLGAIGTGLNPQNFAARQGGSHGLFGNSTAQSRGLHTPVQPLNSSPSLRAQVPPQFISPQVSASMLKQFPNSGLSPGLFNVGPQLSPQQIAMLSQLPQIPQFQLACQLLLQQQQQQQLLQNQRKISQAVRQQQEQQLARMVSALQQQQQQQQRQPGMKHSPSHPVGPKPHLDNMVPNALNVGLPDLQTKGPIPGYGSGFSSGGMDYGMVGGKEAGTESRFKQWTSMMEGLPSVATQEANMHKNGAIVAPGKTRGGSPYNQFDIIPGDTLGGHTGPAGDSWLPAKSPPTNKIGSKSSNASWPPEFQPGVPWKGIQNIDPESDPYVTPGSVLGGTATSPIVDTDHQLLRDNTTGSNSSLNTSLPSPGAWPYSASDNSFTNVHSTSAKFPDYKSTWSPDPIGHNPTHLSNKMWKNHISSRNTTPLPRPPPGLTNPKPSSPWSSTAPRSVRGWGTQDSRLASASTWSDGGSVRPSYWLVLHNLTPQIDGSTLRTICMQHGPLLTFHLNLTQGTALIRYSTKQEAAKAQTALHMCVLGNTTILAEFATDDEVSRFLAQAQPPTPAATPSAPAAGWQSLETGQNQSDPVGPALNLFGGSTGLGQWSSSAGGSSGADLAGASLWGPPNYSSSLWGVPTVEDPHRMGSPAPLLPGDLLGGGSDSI
UniProt Q9Y5S1: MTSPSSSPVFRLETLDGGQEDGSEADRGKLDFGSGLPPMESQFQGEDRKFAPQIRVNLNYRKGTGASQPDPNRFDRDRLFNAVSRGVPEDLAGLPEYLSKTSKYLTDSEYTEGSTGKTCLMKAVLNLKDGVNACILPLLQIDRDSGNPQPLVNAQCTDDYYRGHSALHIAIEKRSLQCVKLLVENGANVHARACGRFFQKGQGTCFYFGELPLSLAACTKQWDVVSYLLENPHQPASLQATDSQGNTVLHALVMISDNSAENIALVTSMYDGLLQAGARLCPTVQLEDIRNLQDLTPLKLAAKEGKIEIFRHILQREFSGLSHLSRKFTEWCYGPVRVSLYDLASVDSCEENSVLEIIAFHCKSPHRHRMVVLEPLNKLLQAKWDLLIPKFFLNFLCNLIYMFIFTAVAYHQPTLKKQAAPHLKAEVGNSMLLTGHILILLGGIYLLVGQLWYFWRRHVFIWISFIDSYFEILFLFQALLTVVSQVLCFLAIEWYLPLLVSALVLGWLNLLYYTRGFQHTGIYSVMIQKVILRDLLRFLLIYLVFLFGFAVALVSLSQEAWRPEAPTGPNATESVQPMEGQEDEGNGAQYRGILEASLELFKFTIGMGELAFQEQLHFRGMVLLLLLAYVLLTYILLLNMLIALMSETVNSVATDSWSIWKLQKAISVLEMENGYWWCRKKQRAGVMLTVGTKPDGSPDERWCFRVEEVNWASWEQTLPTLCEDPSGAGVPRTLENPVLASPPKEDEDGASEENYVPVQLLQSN
UniProt P43897: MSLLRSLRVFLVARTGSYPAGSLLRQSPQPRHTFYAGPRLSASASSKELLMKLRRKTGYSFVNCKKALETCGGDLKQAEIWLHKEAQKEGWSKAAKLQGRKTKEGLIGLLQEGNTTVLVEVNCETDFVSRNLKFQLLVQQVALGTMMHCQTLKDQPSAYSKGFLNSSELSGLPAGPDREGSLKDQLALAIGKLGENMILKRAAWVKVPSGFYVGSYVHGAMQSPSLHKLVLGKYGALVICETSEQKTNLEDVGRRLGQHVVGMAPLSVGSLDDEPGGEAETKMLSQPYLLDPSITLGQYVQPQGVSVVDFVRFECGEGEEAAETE

Compound in the experiment: COc1ccc(Cn2ccc3cc(C)c(C(=O)NO)cc32)cc1
Description: dose-dependent thermal stabilisation call (2D-TPP, DLPTP, 10% FDR) (binary (1 = stabilised)); higher = stabilised by the compound. Particulars: system: HL-60 intact cells; concentration range 0.04-10 µM. As to the method:
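2D thermal proteome profiling in intact HL-60 cells treated with BRD-3811 (0, 0.04, 0.29, 2, 10 uM) for 90 min at 37 C, then heated 3 min at one of 12 temperatures (42-63.9 C). Soluble protein was quantified by TMT10 MS. The value is the DLPTP call of the paper: dose-dependent thermal stabilisation over all temperatures at 10% FDR (F-test of a dose-response against a flat model); one experiment, one call per tested protein.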
In the case of TSNAX (UniProt Q99598), the “dose-dependent thermal stabilisation call” value is inactive: 0.
The result for TRIM28 (UniProt Q13263) reads inactive: 0; that for TRIAP1 (UniProt O43715), inactive: 0; that for TMEM93 (UniProt Q9BV81), inactive: 0.
The same measure for TMCO3 (UniProt Q6UWJ1): inactive: 0; for TRIO (UniProt O75962): inactive: 0; for TRRAP (UniProt Q9Y4A5): inactive: 0.
The same measure for THOC4 (UniProt Q86V81): inactive: 0; for TMED1 (UniProt Q13445): inactive: 0.
Turning to TMEM111 (UniProt Q9P0I2), the “dose-dependent thermal stabilisation call” value was inactive: 0.
The result for THUMPD2 (UniProt Q9BTF0) reads inactive: 0; that for TSC22D1 (UniProt Q15714), inactive: 0.
As for TMEM179B (UniProt Q7Z7N9), the “dose-dependent thermal stabilisation call” value is inactive: 0.
Consider TMEM219 (UniProt Q86XT9), for which the “dose-dependent thermal stabilisation call” value is inactive: 0.
For the target TPK1 (UniProt Q9H3S4), the “dose-dependent thermal stabilisation call” value is inactive: 0.
For TRIM14 (UniProt Q14142), the “dose-dependent thermal stabilisation call” value is inactive: 0.
As to TMED4 (UniProt Q7Z7H5), the “dose-dependent thermal stabilisation call” value is inactive: 0.
The result for TRMT6 (UniProt Q9UJA5) reads active: 1; that for TMEM109 (UniProt Q9BVC6), inactive: 0.
For TNFRSF1A (UniProt P19438), the “dose-dependent thermal stabilisation call” value was inactive: 0.
In the case of TMEM68 (UniProt Q96MH6), the “dose-dependent thermal stabilisation call” value is inactive: 0.
For TPRKB (UniProt Q9Y3C4), the “dose-dependent thermal stabilisation call” value was inactive: 0.
The same measure for TMEM41B (UniProt Q5BJD5): inactive: 0; for TMED3 (UniProt Q9Y3Q3): inactive: 0; for TSG101 (UniProt Q99816): inactive: 0.
The result for TIMM23 (UniProt O14925) reads inactive: 0; that for TOPBP1 (UniProt Q92547), inactive: 0; that for TOX4 (UniProt O94842), inactive: 0.
Regarding TRAPPC6B (UniProt Q86SZ2), the “dose-dependent thermal stabilisation call” value was inactive: 0.
The same measure for TLN2 (UniProt Q9Y4G6): inactive: 0; for TRIP10 (UniProt Q15642): inactive: 0; for TMEM87B (UniProt Q96K49): inactive: 0.
The same measure for TMEM11 (UniProt P17152): inactive: 0; for TNRC6B (UniProt Q9UPQ9): inactive: 0; for TMEM9B (UniProt Q9NQ34): inactive: 0.
Take TRPV2 (UniProt Q9Y5S1): the “dose-dependent thermal stabilisation call” value is inactive: 0.
The same measure for TSFM (UniProt P43897): inactive: 0; for TRMT1 (UniProt Q9NXH9): inactive: 0; for TPP1 (UniProt O14773): inactive: 0.
The result for TIMM9 (UniProt Q9Y5J7) reads inactive: 0.

The values above are taken from the supplement of paper PMC7666118.
